{"source": "patent US20130012466A1", "about": "(priority 2006, published 2013)", "key": {"[1]": {"test_system": "nine human cancer cell lines and one normal mouse control cell line", "assay": "Cytotoxicity screen across the whole cell line panel", "assay_type": "cell-based", "conditions": "at least one cell line of the panel; 10 μM is the non-toxic threshold"}, "MB-MDA-231 cells": {"test_system": "MB-MDA-231 cells", "assay": "Wound healing assay (cell migration)", "assay_type": "cell-based, human", "conditions": "wound healing assay at sub-toxic concentration (the IC10)"}}, "note": "Some results were stated once for a whole list of compounds, not compound by compound. At least one structure is not confirmed: it was looked up by name or label, or the drawing left a doubt."}
{"smiles": "COc1cc2c(c(OC)c1OC)-c1ccc(OC)c(=O)cc1C(NC(=O)CN(OC)C1CC(O)C(O)C(C)O1)CC2", "note": "[Col65, D-Digitoxoside]", "values": [{"measurement": "IC50", "setting": "[1]", "value": "< 1000", "unit": "nM"}, {"measurement": "inhibition of migration of MB-MDA-231 cells", "setting": "MB-MDA-231 cells", "value": "at least 50%"}]}
